This data set concerns CT DNA. Put plainly: CT DNA binding by UV–Vis absorption spectroscopy. The note with it: compound 40 µM, CT DNA 0 to 60 µM; footnote 1 hypsochromic shift, 2 bathochromic shift. Details: species or system calf. As for the experimental part:
Absorption spectroscopy is a convenient and simple method for probing the binding of small molecules to DNA. The interaction of selected acridine–thiosemicarbazone derivatives with CT DNA was studied in the 220–500 nm region. Binding constants (Kb) were calculated from [DNA]/(Ɛa − Ɛf) versus [DNA], in which Kb is given by the ratio of slope to the intercept. […] For this, the regions chosen were the ones with the highest absorption intensity above 300 nm, due to the lower interference in DNA absorption in this region (ESI, Figures S50 and S53).
The concentration of the calf thymus, Type I, fibers (CT DNA), was determined based on the extinction coefficient of the absorbance at 260 nm (6600 L mol^−1 cm^−1). All compounds were dissolved in methanol (HPLC grade) at a concentration of 1 mmol L^−1 (stock solution). Working solutions were prepared by diluting the stock solution using Tris-HCl buffer (pH 7.4), with concentrations of 40 µmol L^−1. Under the optimized concentration, the compounds were titered with increasing concentrations of CT DNA (5 to 60 µmol L^−1). After shaking the system and incubating at room temperature for 10 min, the measurements were recorded using a JASCO J818 spectropolarimeter in the range of 220 to 500 nm at 298 K. The intrinsic bond constant (Kb) was obtained by adjusting the data according to the equation below:[DNA]/(Ɛa − Ɛf) = [DNA]/(Ɛb − Ɛf) + 1/[Kb (Ɛb − Ɛf)] where Ɛa, Ɛb and Ɛf are the apparent extinction coefficient of the compounds, the extinction coefficient of the compounds found in their […] and the extinction coefficient of the compounds when fully DNA-bound, respectively. The graph of [DNA]/(Ɛa − Ɛf) versus [DNA] was used to obtain the Kb from the ratio between the slope and the intercept, as previously described in the literature. Binding data were obtained using SigmaPlot 10.0 software. The study of possible DNA denaturation using methanol–water solutions was evaluated up to the maximum final concentration of methanol in the assays (6%) (ESI, Figures S50 and S53).

As to `Oc1ccc(/C=N/NC(=S)Nc2c3ccccc3nc3ccccc23)cc1` [CL-07, (E)-N-(acridin-9-yl)-2-(4-hydroxybenzylidene)hydrazine-1-carbothioamide], the “∆λ” value is 3 ^1.
Turning to `COc1ccc2nc3cc(Cl)ccc3c(NC(=S)N/N=C/c3ccccc3)c2c1` [DL-01, (E)-2-benzylidene-N-(6-chloro-2-methoxyacridin-9-yl)hydrazine-1-carbothioamide], the “∆λ” value is recorded as 2 ^2.
`COc1ccc2nc3cc(Cl)ccc3c(NC(=S)N/N=C/c3cccc(O)c3)c2c1` [DL-08, (E)-N-(6-chloro-2-methoxyacridin-9-yl)-2-(3-hydroxybenzylidene)hydrazine-1-carbothioamide]: the “∆λ” value was 3 ^2.
As to `CC[n+]1c(-c2ccccc2)c2cc(N)ccc2c2ccc(N)cc21` [EtBr, ethidium bromide, reference compound], the “∆λ” value is recorded as 6 ^2.
